Source: patent publication US8741888B2, “Sleep aid composition and method” (priority 2010, dated 2014)
Entries after “also recorded” stand apart in the source; their conditions may differ.

Tested on: human
Conditions: for ability to take naps / dreams / normality of sleep: inventor's observation

| Compound | change over time of the amount needed to get to sleep (tolerance) (extended use) | ability to take naps | dreams / normality of sleep |
| --- | --- | --- | --- |
| OCCOCCN1CCN(C2=Nc3ccccc3Sc3ccccc32)CC1 [quetiapine] | did not increase | could again nap in the afternoon | dreams returned |
| Cc1ccc(-c2nc3ccc(C)cn3c2CC(=O)N(C)C)cc1 [zolpidem] | – | Naps were not possible; also recorded: prevents naps | did not have dreams |
